{"source": "patent US4039674A", "about": "“3-(3-Methyl-2-octyl)-1-[4-(1-ho mopiperidine)butyryloxy]-6,6,9-trimethyl-7,8,9,10-tetrahydro-6H-dibenzo [b,d]pyran hydrochloride as an anticonvulsant agent” (Abbott Laboratories, priority 1976, dated 1977)", "key": {"[1]": {"tested_on": "hind limb tonic extensor component of the audiogenic seizure", "assay": "Audiogenic seizure in mice (tonic extensor component), single oral dose", "assay_type": "in vivo, male O'Grady strain mice", "conditions": "single oral dose, 1, 4 and 24 hours", "text": "In this test, male O'Grady strain mice (14-16 grams) especially bred for susceptibility to audiogenic seizures were used as subjects. The audiogenic seizure apparatus consisted of a wooden box enclosing a metal container with two doorbells attached to the upper section. The test consisted of administering the test drug orally as a suspension in 10% olive oil and 90% Methocel (0.5%) to ten animals per dose. […] The test drugs included the present compound, DMHP, DPH, Δ^9 -THC and Phenobarbital."}, "[2]": {"tested_on": "hind limb tonic extension seizure (supramaximal electroshock)", "assay": "Supramaximal electroshock test in rats (5-day chronic administration)", "assay_type": "in vivo, male Long-Evans rats", "conditions": "5-day oral, 2.5 mg./kg. (present compound, DMHP), 30.0 mg./kg. (DPH)"}}, "note": "At least one structure is not confirmed: it was looked up by name or label, or the drawing left a doubt."}
{"smiles": "O=C1NC(=O)C(c2ccccc2)(c2ccccc2)N1", "note": "[DPH, diphenylhydantoin]", "values": [{"measurement": "activity over time / time of peak effect", "setting": "[1]", "result": "very active at the one and four hour periods but less active at twenty-four hours"}, {"measurement": "tolerance to anticonvulsant activity", "setting": "[2]", "result": "slower rate of tolerance"}]}
